{"sequences": {"note": "Protein sequences, listed by entry. Tags and fused reporters are not part of them. Lines headed by an entry give the natural chain unless they say otherwise; changes in a name come on top.", "UniProt P68104": "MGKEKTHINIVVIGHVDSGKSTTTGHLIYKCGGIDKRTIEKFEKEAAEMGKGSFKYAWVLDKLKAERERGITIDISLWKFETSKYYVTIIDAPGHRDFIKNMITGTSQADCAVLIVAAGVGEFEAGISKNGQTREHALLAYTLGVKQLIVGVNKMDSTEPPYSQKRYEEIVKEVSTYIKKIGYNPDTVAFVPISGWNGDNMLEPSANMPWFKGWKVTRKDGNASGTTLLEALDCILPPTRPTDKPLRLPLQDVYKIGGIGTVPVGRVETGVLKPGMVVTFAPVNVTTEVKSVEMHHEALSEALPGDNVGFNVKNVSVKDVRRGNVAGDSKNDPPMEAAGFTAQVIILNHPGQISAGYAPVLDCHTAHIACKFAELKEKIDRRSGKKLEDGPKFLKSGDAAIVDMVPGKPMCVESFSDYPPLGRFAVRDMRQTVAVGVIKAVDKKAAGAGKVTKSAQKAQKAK", "UniProt Q00987": "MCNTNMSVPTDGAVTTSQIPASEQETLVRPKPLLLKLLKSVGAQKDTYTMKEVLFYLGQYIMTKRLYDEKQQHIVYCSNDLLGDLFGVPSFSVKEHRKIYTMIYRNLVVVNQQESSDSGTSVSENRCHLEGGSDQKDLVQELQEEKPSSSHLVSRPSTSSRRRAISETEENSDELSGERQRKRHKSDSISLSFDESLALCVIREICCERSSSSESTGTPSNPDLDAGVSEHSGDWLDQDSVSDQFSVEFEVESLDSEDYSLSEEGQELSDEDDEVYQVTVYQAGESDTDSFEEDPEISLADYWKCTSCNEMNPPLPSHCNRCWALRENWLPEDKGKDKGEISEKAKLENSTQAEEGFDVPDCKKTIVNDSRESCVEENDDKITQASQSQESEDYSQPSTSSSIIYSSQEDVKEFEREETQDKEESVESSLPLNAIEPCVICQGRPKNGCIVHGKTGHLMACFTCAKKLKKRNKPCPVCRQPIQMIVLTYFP"}, "source": "paper PMC9117658", "target": "EEF1A1 (human (endogenous in AGS and MKN-45)) (UniProt P68104)", "assay": "co-IP; anti-EEF1A1 antibody on Protein A/G PLUS-Agarose beads, incubated with protein lysate of AGS and MKN-45 cells transfected with pcDNA EEF1A1 or control pcDNA; also AGS cells transfected with tRF-Val at 0, 10, 20, 50 and 100 nmol; blots with anti-MDM2 and anti-p53; IgG as control", "note": "These are yes or no findings as the source states them, for the method shown. Binding seen in cells or lysates may run through a third protein. Binding calls can cover weak binding; strength is not graded here."}
{"substance": "MDM2 (from UniProt Q00987)", "values": [{"measurement": "binding", "value": "binds"}]}
